No constants are given. Whether binding was seen depends on the method and setting. Binding seen in cells or lysates may run through a third protein.

Sequences of proteins named here, by UniProt entry; tags and fusion partners are left off. A change or cut given only in a name is not applied to a line headed by its entry.
UniProt P0DTC6: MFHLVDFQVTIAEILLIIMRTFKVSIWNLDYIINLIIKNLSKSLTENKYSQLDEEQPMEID
UniProt P42224: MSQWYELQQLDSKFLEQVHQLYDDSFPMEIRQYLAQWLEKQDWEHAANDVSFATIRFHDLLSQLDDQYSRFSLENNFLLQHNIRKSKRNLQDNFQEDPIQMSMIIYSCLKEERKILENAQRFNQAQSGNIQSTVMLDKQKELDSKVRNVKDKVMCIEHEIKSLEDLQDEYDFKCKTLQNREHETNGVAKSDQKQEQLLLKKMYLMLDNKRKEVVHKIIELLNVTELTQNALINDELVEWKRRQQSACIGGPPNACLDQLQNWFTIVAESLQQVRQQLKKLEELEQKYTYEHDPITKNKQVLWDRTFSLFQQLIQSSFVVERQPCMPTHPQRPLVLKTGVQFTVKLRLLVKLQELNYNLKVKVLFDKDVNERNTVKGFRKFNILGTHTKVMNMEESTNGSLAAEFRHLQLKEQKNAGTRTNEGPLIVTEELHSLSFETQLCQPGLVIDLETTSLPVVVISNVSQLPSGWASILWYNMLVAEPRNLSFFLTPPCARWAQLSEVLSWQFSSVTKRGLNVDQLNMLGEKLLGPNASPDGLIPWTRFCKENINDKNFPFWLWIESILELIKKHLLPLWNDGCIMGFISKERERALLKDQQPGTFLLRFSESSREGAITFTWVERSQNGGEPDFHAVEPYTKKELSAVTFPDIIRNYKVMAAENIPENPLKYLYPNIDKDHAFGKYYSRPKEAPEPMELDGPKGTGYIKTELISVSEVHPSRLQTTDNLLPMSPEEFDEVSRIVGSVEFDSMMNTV

The target in one test is GST-M3-GFP (SARS-CoV-2) (UniProt P0DTC6). As to the kind of experiment: pull-down; lysates from HeLa cells stimulated with IFN-γ incubated with GST fusion proteins immobilised on GST-beads for 1 h; PY-STAT1 detected by western blot; only the target purified.
Another test has as its target GST-M2-GFP (SARS-CoV-2) (UniProt P0DTC6). The test is described as above.

For the substance “endogenous PY-STAT1 in HeLa cells stimulated by IFN-γ (from UniProt P42224 1-750)”, the binding result with GST-M3-GFP (SARS-CoV-2) and with GST-M2-GFP (SARS-CoV-2) was “no binding” each time.

The record behind these values is publication PMC9120032.
